Test system: muscle-derived stromal cells (MDSC)
Assay: MDSC migration through a transwell membrane
Type: cell-based, human
Conditions: Example 3; FIG. 27B versus FIG. 26D
Description: Migration of 1×10^4 MDSC through an 8 μm pore transwell membrane over 36 hours, in response to fracture supernatant with the addition of AbTNF-α, AbIL-6 and AbIL-1β. The IgG^1 immunoglobulin was used as the antibody control. B: Migration in response to rhTNF-α, rhIL-6 and rhIL-1β in human serum-containing media. Results represent change in cell number, expressed as a percentage of the supernatant, or media only control. Each experiment was performed 3 times (n=3) using 3 fracture supernatants (in A). Results represent mean of 3 experiments ±SEM. *: P<0.05; **: P<0.01; ***: P<0.001; 1-way ANOVA with Bonferroni's multiple comparison test.
MDSC must be recruited to the fracture site from adjacent muscle. Next we assessed the efficacy of the pro-inflammatory cytokines in attracting MDSC in vitro using a transwell assay. 1×10^4 MDSC were seeded onto a 8 μm transwell membrane in serum free media. […]
500 μl serum free media was added to each well of a 24 well plate. […] The number of cells present on the underside of the transwell membrane in any random field was counted 3 times and the mean calculated. Cell migration was calculated against the supernatant or human serum-containing (control) media and the number expressed as a percentage relative to the control media.

| Substance | optimal concentration for migration relative to optimal concentration for osteogenic differentiation / highest ALP expression (fold less) [fold] |
| --- | --- |
| TNFα | 1000 |
| IL-6: pro-inflammatory cytokine, recombinant human IL-6 | 1000 |

Reference: patent US20120213826A1, “Use of Pro-Inflammatory Compounds for Promoting Bone Formation” (Imperial Innovations Limited, priority 2009, published 2012)
